Measured values published in publication PMC3445502.
These are yes or no findings as the source states them, for the method shown.

Molecular target: h9-K5 (human)
Experiment: AUC + other: transmission electron microscopy; linear h9-K5 alone; conditions of these two experiments not given; both purified

B1: h9-K5 (peptide)
chain: FLIVIGSIIKKKKK
binding: no binding
